Data reported in PMC10203227.
No constants are given. Whether binding was seen depends on the method and setting. In cells and extracts the contact can be indirect. Some entries that bind do so weakly or less than the wild type.

Sequences of proteins named here, by UniProt entry; tags and fusion partners are left off.
UniProt O75807: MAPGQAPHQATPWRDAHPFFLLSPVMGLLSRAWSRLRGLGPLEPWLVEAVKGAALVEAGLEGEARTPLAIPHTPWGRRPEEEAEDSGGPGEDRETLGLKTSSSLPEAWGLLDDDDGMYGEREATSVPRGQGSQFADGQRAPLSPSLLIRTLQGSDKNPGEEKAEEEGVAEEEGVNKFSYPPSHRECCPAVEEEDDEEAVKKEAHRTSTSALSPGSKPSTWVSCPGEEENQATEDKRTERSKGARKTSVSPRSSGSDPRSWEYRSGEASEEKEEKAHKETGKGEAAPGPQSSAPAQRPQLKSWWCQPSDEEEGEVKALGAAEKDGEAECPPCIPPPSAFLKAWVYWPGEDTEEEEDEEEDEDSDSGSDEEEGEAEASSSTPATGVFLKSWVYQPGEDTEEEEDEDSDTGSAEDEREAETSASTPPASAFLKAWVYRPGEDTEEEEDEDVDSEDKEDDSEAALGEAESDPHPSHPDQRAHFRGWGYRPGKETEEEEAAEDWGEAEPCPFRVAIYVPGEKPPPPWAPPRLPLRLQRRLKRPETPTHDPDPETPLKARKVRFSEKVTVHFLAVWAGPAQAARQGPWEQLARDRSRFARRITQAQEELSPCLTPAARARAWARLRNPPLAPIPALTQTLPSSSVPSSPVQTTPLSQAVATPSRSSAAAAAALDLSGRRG
UniProt Q00987: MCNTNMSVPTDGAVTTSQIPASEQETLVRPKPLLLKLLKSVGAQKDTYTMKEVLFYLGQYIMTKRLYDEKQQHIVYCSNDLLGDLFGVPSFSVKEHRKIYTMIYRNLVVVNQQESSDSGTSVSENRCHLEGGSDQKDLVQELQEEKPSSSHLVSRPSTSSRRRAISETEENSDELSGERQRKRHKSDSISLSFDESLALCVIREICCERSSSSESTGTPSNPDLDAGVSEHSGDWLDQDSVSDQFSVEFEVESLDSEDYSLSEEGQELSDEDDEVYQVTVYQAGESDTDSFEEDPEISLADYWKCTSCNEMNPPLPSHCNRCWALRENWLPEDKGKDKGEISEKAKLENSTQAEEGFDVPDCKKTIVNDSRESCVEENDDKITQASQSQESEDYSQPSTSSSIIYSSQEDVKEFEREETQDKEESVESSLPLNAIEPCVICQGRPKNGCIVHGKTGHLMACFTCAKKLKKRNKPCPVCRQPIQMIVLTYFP

Target: growth arrest and DNA-damage-inducible gene 34 (GADD34) (human (endogenous in A549 or U2OS)) (UniProt O75807)
Test: co-IP; cells transfected with scrambled or MDM2 siRNA, treated with MG132 (10 uM, 6 h); lysates in 1% Nonidet P-40 lysis buffer (50 mM Tris-HCl pH 7.6, 150 mM NaCl) immunoprecipitated with anti-GADD34 polyclonal antibody or control IgG, Protein G PLUS-Agarose, washed with 0.1% Nonidet P-40 lysis buffer; Western blot with anti-MDM2

For MDM2 (from UniProt Q00987 1-491), the binding was “binds”.
